From the supplement of paper PMC9015667
Counter-ions that a name gives are not always drawn. This is one part of the list. Single values are uncertain, as repeats are few or missing.

Tested on: M249P (parental melanoma line)
Assay: reduction in cell viability relative to untreated/vehicle; higher = more growth inhibition
Settings: 200 nM; 72 h

| Compound | reduction in cell viability [%] |
| --- | --- |
| CCC[C@@H]1C[C@@H](C(=O)N[C@@H]([C@H]2O[C@H](SC)[C@H](O)[C@@H](O)[C@H]2O)[C@H](C)Cl)N(C)C1 [Clindamycin hydrochloride] | < 0 |
| CCCCOc1ccc(CC(=O)NO)cc1 [Bufexamac] | < 0 |
| CCCCCNC(=O)N1CCC(CN(Cc2ccc(Cl)cc2)Cc2ccc([N+](=O)[O-])s2)C1 (centres undefined) | < 0 |
| NC(=O)c1cccc(-c2cccc(OC(=O)NC3CCCCC3)c2)c1 | < 0 |
| COC1=C2C[C@@H](C)C[C@H](OC)[C@H](O)[C@@H](C)/C=C(\C)[C@H](OC(N)=O)[C@@H](OC)/C=C\C=C(/C)C(=O)NC(=CC1=O)C2=O [Geldanamycin] | < 0 |
| Cn1cc(/C=C/C(=O)c2cccc(F)c2)cc1/C=C/C(=O)NO | < 0 |
| Clc1ccc(CCC(Cn2ccnc2)Sc2c(Cl)cccc2Cl)cc1 (centres undefined) [Butoconazole nitrate] | < 0 |
| CCOc1ccc(Nc2nc(-c3c(C)nc4ccccn34)cs2)cc1 | 59.5 |
| Nc1nc(=O)n([C@H]2C[C@H](O)[C@@H](CO)O2)cc1F | < 0 |
| C=CC(=O)N1CCC[C@@H](n2nc(-c3ccc(Oc4ccccc4)cc3)c3c(N)ncnc32)C1 | < 0 |
| O=C1CCCC(=O)C1C(=O)c1ccc(C(F)(F)F)cc1[N+](=O)[O-] [Nitisinone] | < 0 |
| CCn1c(-c2nonc2N)nc2cnc(Oc3cccc(NC(=O)c4ccc(OCCN5CCOCC5)cc4)c3)cc21 | < 0 |
| CC[C@H](CO)Nc1nc(NCc2ccccc2)c2ncn(C(C)C)c2n1 [Seliciclib] | < 0 |
| CCOC(=O)N1CCN(/[N+]([O-])=N/Oc2cc(O/N=[N+](\[O-])N3CCN(C(=O)OCC)CC3)c([N+](=O)[O-])cc2[N+](=O)[O-])CC1 [Double JS-K] | < 0 |
| CN(Cc1cc(Br)cc(Br)c1N)C1CCCCC1 [Bromhexine hydrochloride] | < 0 |
| Fc1cc(-c2cccc3ncc(-c4cnn(C5CCNCC5)c4)nc23)cc(F)c1CN1CCOCC1 | < 0 |
| COc1ccc(-n2nc(C(N)=O)c3c2C(=O)N(c2ccc(N4CCCCC4=O)cc2)CC3)cc1 [Apixaban] | < 0 |
| CCCCC(F)(F)[C@@]1(O)CC[C@H]2[C@@H](CC(=O)[C@@H]2CCCCCCC(=O)O)O1 [Lubiprostone] | < 0 |
| CC[C@]1(O)C[C@@H]2CN(CCc3c([nH]c4ccccc34)[C@@](C(=O)OC)(c3cc4c(cc3OC)N(C)[C@H]3[C@@](O)(C(=O)OC)[C@H](OC(C)=O)[C@]5(CC)C=CCN6CC[C@]43[C@@H]65)C2)C1 [Vinblastine] | 45.3 |
| CCN(CC)CCOc1ccc(C(=C(Cl)c2ccccc2)c2ccccc2)cc1 [Clomifene citrate] | < 0 |

Pulled by structure from above:

| Compound | reduction in cell viability [%] |
| --- | --- |
| Nc1nc(=O)n([C@H]2C[C@H](O)[C@@H](CO)O2)cc1F | < 0 |
| CCC[C@@H]1C[C@@H](C(=O)N[C@@H]([C@H]2O[C@H](SC)[C@H](O)[C@@H](O)[C@H]2O)[C@H](C)Cl)N(C)C1 [Clindamycin hydrochloride] | < 0 |

Following part.

| Compound | reduction in cell viability [%] |
| --- | --- |
| CCN(CC)CCCCNc1nc2cc(Cl)c(Cl)cc2nc1-c1ccc(-c2cccs2)s1 | < 0 |
| NNCCc1ccccc1 [Phenelzine] | < 0 |
| C[C@H](NC(=O)Cc1cc(F)cc(F)c1)C(=O)N[C@@H]1C(=O)N(C)c2ccccc2-c2ccccc21 | < 0 |
| CCN(CC)CCCC(C)Nc1nc(C)cc(Nc2ccc3nc(C)cc(N)c3c2)n1 (centres undefined) | < 0 |
| Cc1cc2nc3c(=O)[nH]c(=O)nc-3n(C[C@H](O)[C@H](O)[C@H](O)CO)c2cc1C | < 0 |
| Nc1ccn([C@@H]2O[C@H](CO)[C@@H](O)[C@H]2O)c(=O)n1 [Cytidine] | < 0 |
| O=S(=O)(O)CCS [Mesna] | < 0 |
| CNC(=O)c1cc(Oc2ccc(NC(=O)Nc3ccc(Cl)c(C(F)(F)F)c3)cc2)ccn1 [Sorafenib] | < 0 |
| O=C(c1ccc(Nc2nccc(-c3cc4ccccc4s3)n2)cc1)N1CCC(N2CCCC2)CC1 | < 0 |
| COC(=O)N1CCN(Cc2cccc(NC(=O)Nc3ccc(C)nc3)c2F)CC1 [Omecamtiv mecarbil] | < 0 |
| CCC1=C[C@@H]2CN(C1)Cc1c([nH]c3ccccc13)[C@@](C(=O)OC)(c1cc3c(cc1OC)N(C)[C@H]1[C@@](O)(C(=O)OC)[C@H](OC(C)=O)[C@]4(CC)C=CCN5CC[C@]31[C@@H]54)C2 [Vinorelbine tartrate] | 62.1 |
| CC(=O)Nc1cccc(-n2c(=O)n(C3CC3)c(=O)c3c(Nc4ccc(I)cc4F)n(C)c(=O)c(C)c32)c1 [Trametinib] | 79.3 |
| CC(C)=CC[C@@H](O)C1=CC(=O)c2c(O)ccc(O)c2C1=O [Shikonin] | < 0 |
| CC[C@@H]1/C=C(\C)C[C@H](C)C[C@H](OC)[C@H]2O[C@@](O)(C(=O)C(=O)N3CCCC[C@H]3C(=O)O[C@H](/C(C)=C/[C@@H]3CC[C@H](Cl)[C@H](OC)C3)[C@H](C)[C@@H](O)CC1=O)[C@H](C)C[C@@H]2OC [Pimecrolimus] | < 0 |
| S=c1nc[nH]c2nc[nH]c12 [6-mercaptopurine] | < 0 |
| C[C@@H]1CN(c2c(F)c(N)c3c(=O)c(C(=O)O)cn(C4CC4)c3c2F)C[C@H](C)N1 [Sparfloxacin] | < 0 |
| OCCn1cc(-c2cnc3nnn(Cc4ccc5ncccc5c4)c3n2)cn1 | < 0 |
| Cc1cncc2cccc(S(=O)(=O)N3CCCN(C(=O)CN)C[C@@H]3C)c12 [Glycyl-H-1152] | < 0 |
| CC(O)(C#Cc1ccc2c(c1)N(c1nc(N)ncc1Cl)CC2)c1nccs1 (centres undefined) | < 0 |
